No constants are given. Whether binding was seen depends on the method and setting. Binding seen in cells or lysates may run through a third protein. Some results given as binding are weak or reduced against the parent protein; the word gives no strength. Sequences can lack the tags named with a protein.

Amino acid sequences for entries named in this document (tags omitted). Residues count along the entry.
UniProt Q9FI56, residues 39-929: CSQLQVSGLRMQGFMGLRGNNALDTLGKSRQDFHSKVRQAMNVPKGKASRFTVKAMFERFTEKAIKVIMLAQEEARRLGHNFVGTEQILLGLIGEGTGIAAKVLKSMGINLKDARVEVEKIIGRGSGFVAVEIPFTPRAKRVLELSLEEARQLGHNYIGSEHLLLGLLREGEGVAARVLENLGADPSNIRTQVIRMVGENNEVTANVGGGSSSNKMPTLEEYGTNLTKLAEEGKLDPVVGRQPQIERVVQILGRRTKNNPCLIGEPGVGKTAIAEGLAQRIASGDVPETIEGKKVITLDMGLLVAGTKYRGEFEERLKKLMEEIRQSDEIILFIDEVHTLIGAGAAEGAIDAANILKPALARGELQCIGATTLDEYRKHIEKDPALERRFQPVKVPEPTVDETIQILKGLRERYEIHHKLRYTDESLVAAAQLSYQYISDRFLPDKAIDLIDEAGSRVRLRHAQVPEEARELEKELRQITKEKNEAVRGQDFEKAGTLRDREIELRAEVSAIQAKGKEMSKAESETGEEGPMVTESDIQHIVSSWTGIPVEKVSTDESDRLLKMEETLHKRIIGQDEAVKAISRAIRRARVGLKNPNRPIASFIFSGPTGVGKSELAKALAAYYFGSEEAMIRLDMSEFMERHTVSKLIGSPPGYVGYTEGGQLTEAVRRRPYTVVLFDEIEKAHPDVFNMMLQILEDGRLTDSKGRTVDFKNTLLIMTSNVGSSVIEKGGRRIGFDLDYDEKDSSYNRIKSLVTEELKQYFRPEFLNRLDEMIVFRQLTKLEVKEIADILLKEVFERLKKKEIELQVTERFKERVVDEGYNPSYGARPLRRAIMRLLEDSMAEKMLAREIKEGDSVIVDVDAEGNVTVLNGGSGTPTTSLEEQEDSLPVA
UniProt Q9LUS2: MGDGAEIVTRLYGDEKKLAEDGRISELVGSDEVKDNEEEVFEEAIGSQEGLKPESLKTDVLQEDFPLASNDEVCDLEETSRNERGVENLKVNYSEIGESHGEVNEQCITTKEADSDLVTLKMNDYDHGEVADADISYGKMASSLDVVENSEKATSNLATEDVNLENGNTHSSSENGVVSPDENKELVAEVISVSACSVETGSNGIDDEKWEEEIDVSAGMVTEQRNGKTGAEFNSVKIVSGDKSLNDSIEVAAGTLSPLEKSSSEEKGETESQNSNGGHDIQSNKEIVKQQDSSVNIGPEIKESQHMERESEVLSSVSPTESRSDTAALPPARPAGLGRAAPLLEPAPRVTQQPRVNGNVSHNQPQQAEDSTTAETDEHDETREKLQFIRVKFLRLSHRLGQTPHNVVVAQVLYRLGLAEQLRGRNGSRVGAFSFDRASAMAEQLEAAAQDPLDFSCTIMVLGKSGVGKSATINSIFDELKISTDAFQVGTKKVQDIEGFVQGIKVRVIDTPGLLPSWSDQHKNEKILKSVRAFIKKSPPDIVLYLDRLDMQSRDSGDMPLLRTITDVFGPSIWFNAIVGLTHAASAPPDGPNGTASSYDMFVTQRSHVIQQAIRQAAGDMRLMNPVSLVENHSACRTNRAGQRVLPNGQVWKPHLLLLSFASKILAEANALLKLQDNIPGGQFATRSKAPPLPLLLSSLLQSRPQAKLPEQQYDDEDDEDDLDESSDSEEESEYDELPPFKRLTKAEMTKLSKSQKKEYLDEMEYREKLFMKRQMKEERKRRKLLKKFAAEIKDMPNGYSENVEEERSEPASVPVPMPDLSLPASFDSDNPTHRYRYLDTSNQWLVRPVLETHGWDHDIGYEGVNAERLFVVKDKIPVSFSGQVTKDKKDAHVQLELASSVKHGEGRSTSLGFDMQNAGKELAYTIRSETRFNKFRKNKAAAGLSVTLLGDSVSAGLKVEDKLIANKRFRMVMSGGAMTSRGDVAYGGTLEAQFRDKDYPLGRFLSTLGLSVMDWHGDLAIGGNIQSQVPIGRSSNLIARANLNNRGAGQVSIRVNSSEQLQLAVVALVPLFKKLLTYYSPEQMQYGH

From PMC8151980 come the findings set out here.

The assay has as its target T1, hexa-histidine-tagged, 35S-methionine-labeled chloroplast envelope quinone oxidoreductase homologue (ceQORH-(His)6) (UniProt Q9SV68).
T1 sequence (chain, 35S-methionine-labeled): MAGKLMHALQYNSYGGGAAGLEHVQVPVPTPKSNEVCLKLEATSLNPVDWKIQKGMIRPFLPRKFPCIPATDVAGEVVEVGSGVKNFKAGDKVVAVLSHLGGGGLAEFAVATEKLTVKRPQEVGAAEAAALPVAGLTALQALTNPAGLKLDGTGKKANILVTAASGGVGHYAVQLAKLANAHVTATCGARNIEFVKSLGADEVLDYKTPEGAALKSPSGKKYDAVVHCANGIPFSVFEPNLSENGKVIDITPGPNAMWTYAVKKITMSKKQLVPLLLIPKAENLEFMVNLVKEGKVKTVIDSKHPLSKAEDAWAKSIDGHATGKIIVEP
Briefly: pull-down; purified 35S-ceQORH-(His)6 incubated 15 min with isolated Arabidopsis chloroplasts at 0.1 mM Mg-GTP and 0.1 mM Mg-ATP; envelope membranes detergent-solubilized (2% Triton X100, 300 mM NaCl, 20 mM imidazole); import intermediate-associated proteins purified by Ni-NTA chromatography, separated by 1D or 2D SDS-PAGE, Coomassie-stained and identified by protein sequencing; only the target purified.

As to HSP93-V (from UniProt Q9FI56 39-929), the binding result was “binds”.
Next, TOC120 (from UniProt Q9LUS2 1-1089): “binds”.
